Several values for one entry are separate records, joined by “and”; a condition that tells them apart may be missing. Equal values may be shown once. At least one read-out could not be matched to a standard name with certainty.
Key:
Test in all cases: Greenhouse postemergence herbicidal effect (visual injury)
Assay type in all cases: in vivo
[1] = tested on: ALOMY, Alopecurus myosuroides (blackgrass)
Text: (§1) Seeds of the desired test plant species were planted in a 90:10% v/v (volume/volume) mixture of PRO-MIX® BX (Premier Tech Horticulture, Quakertown, Pa., USA) and PROFILE® GREENS GRADE™ (Profile Products LLC, Buffalo Grove, Ill., USA) planting mixture, which typically has a pH of 5.2 to 6.2 and an organic matter content of at least 50 percent, in plastic pots with a surface area of 103.2 square centimeters (cm^2). In some aspects, to help ensure good germination and healthy plants, a fungicide treatment and/or other chemical or physical treatment was applied. The plants were grown for 7-36 days (d) in a greenhouse with an approximate 14-hour (h) photoperiod which was maintained at about 23° C. during the day and 22° C. during the night. Nutrients and water were added on a regular basis and supplemental lighting was provided with overhead metal halide 1000-Watt lamps as necessary. The plants were employed for testing when they reached the second or third true leaf stage.
(§2) Emulsifiable concentrates of each of each pyridine carboxylate herbicide (Compound A or Compound B) were prepared at 100 grams acid equivalent per liter (g ae/L). The emulsifiable concentrates also included a safener, cloquintocet-mexyl, at 120 grams active ingredient per liter (g ai/L), unless otherwise noted below. An aliquot of each emulsifiable concentrate was placed in a 25 mL glass vial and diluted with an aqueous mixture of 1.25% (v/v) ACTIROB® B esterified rapeseed oil (Bayer Crop Science, Research Triangle Park, N.C., USA) or MSO® Concentrate with LECI-TECH® methylated soybean oil (Loveland Products, Loveland, Colo., USA) to obtain concentrated stock solutions at the highest application rate for each herbicide, based upon a 12 milliliter (mL) application volume at a rate of 187 liters per hectare (L/ha). The concentrated stock solutions were further diluted with an aqueous mixture of 1.25% v/v ACTIROB® B or MSO® Concentrate with LECI-TECH® to obtain stock solutions at reduced application rates for each herbicide. Spray solutions of the herbicide combinations (Compound A or Compound B plus ACCase inhibitor herbicide) were prepared by adding weighed amounts or aliquots of the ACCase inhibitor herbicide to the stock solutions of Compound A or Compound B to form 12-mL spray solutions in two-way combinations.
(§3) The spray solutions were applied to the plant material with an overhead Mandel track sprayer equipped with 8002E nozzles calibrated to deliver 187 L/ha over an application area of 0.503 square meters (m^2) at a spray height of 18 inches (43 centimeters (cm)) above the average plant canopy. Control plants were sprayed in the same manner with the solvent blank. All pyridine carboxylate herbicide (component a) application rates are given as “g ae/ha” and all ACCase inhibitor herbicide (component b) application rates are given as “g ai/ha.”
(§4) The treated plants and control plants were placed in a greenhouse as described above and watered by sub-irrigation to prevent wash-off of the test compounds. After 20-22 d, the condition of the test plants as compared with that of the control plants was determined visually and scored on a scale of 0 to 100 percent where 0 corresponds to no injury and 100 corresponds to complete kill.

[2] = tested on: LOLMU, Lolium multiflorum (Italian ryegrass)
Text: as §1, §2, §3, §4

[3] = tested on: CYPES, Cyperus esculentus (nutsedge)
Text: as §1, §2, §3, §4

[4] = tested on: ECHCG, Echinochloa crus-galli (barnyardgrass)
Text: as §1, §2, §3, §4

[5] = tested on: DIGSA, Digitaria sanguinalis (large crabgrass)
Text: as §1, §2, §3, §4

[6] = tested on: AVEFA, Avena fatua (wild oat)
Text: as §1, §2, §3, §4

Row | SMILES | % visual injury, Obs ([1]; 30 g ai/ha) | % visual injury, Obs ([2]; 30 g ai/ha) | % visual injury, Obs ([3]; 30 g ai/ha) | % visual injury, Obs ([4]; 30 g ai/ha) | % visual injury, Obs ([5]; 30 g ai/ha) | % visual injury, Obs ([6]; 30 g ai/ha) | % visual injury, Obs ([1]; ALOMY, Compound A 0 g/ha, Quizalofop-P-ethyl 75 g/ha) | % visual injury, Obs ([2]; LOLMU, Compound A 0 g/ha, Quizalofop-P-ethyl 75 g/ha) | % visual injury, Obs ([3]; CYPES, Compound A 0 g/ha, Quizalofop-P-ethyl 75 g/ha) | % visual injury, Obs ([4]; ECHCG, Compound A 0 g/ha, Quizalofop-P-ethyl 75 g/ha) | % visual injury, Obs ([5]; DIGSA, Compound A 0 g/ha, Quizalofop-P-ethyl 75 g/ha) | % visual injury, Obs ([6]; AVEFA, Compound A 0 g/ha, Quizalofop-P-ethyl 75 g/ha)
1 | C#CCOC(=O)[C@@H](C)Oc1ccc(Oc2ncc(Cl)cc2F)cc1 | 10% | 55% | 0% and 5% | 100% | 80% | 80% and 85% |  |  |  |  |  | 
2 | CCc1cc(C)cc(CC)c1-c1c(OC(=O)C(C)(C)C)n2n(c1=O)CCOCC2 [Pinoxaden] | 5% | 90% | 0% and 8% | 100% |  | 88% and 80% |  |  |  |  |  | 
3 | CCOC(=O)[C@@H](C)Oc1ccc(Oc2cnc3cc(Cl)ccc3n2)cc1 [Quizalofop-P-ethyl, reference compound] |  |  |  |  |  |  | 95% | 100% | 0% | 100% | 95% | 98%
